According to paper doi:10.1101/2020.11.16.384750:
No constants are given. Whether binding was seen depends on the method and setting. In cells and extracts the contact can be indirect. Here binding means that the protein was enriched with, or labelled near, the bait; the list need not be complete. For part of these data: Tags and fused reporters may be left off the sequences shown. Values belong to the substance of their own block, whether it stands above or below them.

Protein sequences, listed by entry. Tags and fused reporters are not part of them.
UniProt Q16539: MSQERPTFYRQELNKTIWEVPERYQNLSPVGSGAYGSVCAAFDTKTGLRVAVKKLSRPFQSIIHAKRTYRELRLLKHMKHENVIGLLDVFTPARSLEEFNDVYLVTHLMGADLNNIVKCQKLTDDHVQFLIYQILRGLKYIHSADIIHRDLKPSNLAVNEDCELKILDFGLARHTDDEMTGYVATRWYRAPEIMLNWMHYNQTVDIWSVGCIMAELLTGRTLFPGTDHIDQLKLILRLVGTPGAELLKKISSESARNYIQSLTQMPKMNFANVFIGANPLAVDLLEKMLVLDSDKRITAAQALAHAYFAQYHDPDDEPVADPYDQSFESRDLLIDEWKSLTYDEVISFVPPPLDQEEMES
UniProt Q01167: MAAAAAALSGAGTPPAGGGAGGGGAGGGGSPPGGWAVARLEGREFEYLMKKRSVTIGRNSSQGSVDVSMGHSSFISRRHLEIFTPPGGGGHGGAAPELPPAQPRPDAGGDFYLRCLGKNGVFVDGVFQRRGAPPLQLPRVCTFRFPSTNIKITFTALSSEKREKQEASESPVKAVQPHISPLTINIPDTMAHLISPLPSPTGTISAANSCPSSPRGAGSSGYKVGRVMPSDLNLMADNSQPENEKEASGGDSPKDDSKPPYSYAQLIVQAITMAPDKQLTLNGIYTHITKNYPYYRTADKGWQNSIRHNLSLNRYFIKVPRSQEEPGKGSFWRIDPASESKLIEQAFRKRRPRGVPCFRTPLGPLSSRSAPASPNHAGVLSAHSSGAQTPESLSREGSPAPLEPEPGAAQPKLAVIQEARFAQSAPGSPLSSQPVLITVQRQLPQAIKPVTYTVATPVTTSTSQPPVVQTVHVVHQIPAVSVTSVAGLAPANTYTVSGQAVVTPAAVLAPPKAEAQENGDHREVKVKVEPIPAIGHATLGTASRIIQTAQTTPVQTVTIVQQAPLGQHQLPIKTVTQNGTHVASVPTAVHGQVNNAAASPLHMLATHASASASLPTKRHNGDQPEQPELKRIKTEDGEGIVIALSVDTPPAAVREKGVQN
UniProt Q8IW41: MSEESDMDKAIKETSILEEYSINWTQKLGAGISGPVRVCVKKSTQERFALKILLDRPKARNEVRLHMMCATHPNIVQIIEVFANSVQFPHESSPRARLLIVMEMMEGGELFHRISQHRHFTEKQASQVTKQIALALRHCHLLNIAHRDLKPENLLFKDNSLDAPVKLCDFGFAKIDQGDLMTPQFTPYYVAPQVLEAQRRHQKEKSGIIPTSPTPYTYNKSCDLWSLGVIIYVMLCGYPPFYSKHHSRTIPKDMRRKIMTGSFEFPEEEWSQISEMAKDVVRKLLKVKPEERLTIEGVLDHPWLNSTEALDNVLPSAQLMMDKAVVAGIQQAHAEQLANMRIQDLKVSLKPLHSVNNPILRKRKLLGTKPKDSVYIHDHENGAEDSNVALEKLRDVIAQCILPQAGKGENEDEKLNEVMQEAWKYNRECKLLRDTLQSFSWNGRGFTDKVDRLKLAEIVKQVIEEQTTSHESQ
UniProt Q9UHD2: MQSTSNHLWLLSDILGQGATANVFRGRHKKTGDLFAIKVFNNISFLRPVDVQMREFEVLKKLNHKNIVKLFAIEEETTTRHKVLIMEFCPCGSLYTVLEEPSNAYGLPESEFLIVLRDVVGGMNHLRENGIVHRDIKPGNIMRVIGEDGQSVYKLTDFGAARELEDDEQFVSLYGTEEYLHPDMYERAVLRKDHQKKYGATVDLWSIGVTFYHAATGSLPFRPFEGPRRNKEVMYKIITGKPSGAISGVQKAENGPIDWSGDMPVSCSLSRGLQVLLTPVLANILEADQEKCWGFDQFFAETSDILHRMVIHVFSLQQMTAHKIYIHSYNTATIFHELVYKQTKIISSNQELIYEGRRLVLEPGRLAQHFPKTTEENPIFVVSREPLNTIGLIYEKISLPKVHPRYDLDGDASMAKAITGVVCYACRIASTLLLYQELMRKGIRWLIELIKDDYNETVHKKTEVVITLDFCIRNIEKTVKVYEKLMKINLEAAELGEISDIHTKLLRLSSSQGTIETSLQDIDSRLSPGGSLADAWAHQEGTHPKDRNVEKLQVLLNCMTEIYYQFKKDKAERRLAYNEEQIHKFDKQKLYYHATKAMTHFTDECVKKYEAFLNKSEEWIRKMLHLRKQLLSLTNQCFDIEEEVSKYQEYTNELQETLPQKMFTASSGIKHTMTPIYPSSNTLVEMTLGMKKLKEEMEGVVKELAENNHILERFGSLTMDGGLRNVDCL

Columns and labels:
Assay in all cases: affinity purification with mass spectrometry
[1] = target: T1, MAP3K7 (TAK1), C-terminal His-GSG-Flag tagged bait (UniProt O43318)
T1 sequence: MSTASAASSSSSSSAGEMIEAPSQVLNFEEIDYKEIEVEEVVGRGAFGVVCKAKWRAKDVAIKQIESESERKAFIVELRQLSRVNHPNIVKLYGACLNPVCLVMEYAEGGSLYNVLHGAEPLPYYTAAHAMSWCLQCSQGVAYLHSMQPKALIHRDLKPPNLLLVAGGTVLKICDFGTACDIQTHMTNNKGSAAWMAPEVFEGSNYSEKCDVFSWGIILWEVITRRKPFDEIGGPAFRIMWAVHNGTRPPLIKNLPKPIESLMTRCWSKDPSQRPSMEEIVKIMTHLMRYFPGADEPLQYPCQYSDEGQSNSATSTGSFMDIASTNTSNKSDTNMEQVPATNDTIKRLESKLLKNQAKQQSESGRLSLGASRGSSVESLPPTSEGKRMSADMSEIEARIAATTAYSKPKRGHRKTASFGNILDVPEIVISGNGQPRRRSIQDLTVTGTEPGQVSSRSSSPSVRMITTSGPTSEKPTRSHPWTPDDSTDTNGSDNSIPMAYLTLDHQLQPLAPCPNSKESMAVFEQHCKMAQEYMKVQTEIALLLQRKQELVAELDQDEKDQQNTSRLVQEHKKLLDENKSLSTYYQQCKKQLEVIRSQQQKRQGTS

[2] = target: MAPK14 (p38 kinase), C-terminal His-GSG-Flag tagged bait (UniProt Q16539)
[3] = target: T2, TRAF2, C-terminal His-GSG-Flag tagged bait (wild type) (UniProt Q12933)
T2 sequence: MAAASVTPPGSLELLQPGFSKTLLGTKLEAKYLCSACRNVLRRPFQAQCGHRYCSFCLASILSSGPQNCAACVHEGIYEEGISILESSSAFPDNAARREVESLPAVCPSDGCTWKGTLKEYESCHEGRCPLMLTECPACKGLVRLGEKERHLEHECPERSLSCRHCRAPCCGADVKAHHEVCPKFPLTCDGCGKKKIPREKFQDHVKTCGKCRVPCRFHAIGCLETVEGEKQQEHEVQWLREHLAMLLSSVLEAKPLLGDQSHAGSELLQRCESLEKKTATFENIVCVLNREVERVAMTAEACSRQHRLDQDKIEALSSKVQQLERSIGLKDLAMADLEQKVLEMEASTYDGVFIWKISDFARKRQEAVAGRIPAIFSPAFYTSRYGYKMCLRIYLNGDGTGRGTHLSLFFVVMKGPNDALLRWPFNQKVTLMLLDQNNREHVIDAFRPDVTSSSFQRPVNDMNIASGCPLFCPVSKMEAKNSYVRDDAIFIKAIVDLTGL

- binding [1]: binds
Substance: FOXK2 (from UniProt Q01167 1-660)

- binding [2]: binds
Substance: MAPKAPK5 (from UniProt Q8IW41 1-473) (enzyme)

- binding [3]: binds
Substance: serine/threonine-protein kinase TBK1 (from UniProt Q9UHD2 1-729)
